Results on one substance are retold here after article doi:10.1101/2021.08.20.457118.

Results are given in words; binding and its absence hold for the method and conditions named. Binding calls can cover weak binding; strength is not graded here. Sequences can lack the tags named with a protein.

The target in the test is T1, UFD-2 (tagless recombinant) (C. elegans) (UniProt Q09349).
T1 sequence: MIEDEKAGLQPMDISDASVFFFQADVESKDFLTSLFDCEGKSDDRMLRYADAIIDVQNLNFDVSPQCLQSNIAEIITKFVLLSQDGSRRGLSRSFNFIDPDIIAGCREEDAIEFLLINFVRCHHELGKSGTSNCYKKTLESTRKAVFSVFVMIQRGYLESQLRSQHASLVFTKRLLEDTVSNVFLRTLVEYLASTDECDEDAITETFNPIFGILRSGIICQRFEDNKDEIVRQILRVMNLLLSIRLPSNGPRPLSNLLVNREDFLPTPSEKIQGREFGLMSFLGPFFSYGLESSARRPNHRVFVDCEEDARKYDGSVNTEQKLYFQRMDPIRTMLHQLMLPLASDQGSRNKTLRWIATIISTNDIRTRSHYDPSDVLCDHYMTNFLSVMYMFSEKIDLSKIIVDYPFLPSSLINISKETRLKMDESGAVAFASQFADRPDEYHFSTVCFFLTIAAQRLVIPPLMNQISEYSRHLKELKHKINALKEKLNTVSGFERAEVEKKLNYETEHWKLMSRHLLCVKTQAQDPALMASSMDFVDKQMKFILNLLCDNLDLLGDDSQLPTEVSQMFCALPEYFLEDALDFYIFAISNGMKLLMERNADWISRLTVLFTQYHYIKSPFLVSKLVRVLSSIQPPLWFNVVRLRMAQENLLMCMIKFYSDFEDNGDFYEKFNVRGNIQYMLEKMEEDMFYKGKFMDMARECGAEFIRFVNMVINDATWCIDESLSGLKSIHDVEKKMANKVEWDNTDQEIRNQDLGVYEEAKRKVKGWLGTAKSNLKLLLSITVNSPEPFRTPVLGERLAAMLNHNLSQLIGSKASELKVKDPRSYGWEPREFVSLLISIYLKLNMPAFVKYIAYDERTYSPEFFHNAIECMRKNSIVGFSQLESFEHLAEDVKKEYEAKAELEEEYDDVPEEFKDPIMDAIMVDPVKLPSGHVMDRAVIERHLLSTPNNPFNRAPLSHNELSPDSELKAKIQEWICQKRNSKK
In words: ELISA. On the technique in general: An ELISA detects its analyte on a solid surface through an enzyme-linked reagent.

“CHN-1 (untagged recombinant) (C. elegans) (enzyme)”: the binding entry is listed as “binds”.
